Measurements as given in the supplement of paper PMC10849652.
The other results are listed elsewhere or left out.

Amino acid sequences for entries named in this document (tags omitted). A change or cut given only in a name is not applied to a line headed by its entry.
UniProt Q6P1Q0: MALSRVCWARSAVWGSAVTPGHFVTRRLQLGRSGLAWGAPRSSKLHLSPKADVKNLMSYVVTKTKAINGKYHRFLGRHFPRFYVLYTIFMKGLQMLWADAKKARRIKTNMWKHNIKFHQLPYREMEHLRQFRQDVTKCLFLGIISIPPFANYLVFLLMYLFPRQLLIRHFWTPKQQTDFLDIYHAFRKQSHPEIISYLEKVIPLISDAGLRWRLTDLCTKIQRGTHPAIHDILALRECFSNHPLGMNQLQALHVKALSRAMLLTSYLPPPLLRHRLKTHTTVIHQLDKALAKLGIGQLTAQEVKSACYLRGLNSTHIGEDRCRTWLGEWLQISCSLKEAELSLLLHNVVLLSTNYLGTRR
UniProt Q03252: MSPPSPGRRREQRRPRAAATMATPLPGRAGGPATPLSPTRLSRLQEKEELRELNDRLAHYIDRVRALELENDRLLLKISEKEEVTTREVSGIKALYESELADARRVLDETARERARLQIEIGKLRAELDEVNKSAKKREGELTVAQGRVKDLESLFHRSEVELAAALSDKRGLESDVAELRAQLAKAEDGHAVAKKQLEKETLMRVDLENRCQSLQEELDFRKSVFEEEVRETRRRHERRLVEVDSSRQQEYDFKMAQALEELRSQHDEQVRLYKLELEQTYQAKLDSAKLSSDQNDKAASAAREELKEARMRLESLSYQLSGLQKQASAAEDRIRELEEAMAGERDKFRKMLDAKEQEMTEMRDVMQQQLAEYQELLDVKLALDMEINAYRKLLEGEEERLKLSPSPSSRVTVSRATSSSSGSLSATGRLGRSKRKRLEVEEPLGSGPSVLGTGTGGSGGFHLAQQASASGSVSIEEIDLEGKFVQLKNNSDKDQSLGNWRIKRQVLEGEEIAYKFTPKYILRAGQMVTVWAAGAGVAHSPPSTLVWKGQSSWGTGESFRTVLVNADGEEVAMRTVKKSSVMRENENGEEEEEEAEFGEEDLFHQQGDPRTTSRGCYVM
UniProt Q6UWP7: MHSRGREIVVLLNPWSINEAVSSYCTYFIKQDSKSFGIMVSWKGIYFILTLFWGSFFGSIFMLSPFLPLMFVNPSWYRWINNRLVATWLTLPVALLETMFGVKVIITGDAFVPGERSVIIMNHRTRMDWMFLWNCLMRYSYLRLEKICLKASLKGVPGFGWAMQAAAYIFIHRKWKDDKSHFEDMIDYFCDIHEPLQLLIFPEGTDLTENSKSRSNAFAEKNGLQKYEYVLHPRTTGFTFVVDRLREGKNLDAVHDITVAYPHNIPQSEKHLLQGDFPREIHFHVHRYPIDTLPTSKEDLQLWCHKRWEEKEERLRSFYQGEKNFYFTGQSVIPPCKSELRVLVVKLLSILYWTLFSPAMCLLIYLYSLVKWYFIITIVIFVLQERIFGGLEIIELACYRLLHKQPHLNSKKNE
UniProt O60294: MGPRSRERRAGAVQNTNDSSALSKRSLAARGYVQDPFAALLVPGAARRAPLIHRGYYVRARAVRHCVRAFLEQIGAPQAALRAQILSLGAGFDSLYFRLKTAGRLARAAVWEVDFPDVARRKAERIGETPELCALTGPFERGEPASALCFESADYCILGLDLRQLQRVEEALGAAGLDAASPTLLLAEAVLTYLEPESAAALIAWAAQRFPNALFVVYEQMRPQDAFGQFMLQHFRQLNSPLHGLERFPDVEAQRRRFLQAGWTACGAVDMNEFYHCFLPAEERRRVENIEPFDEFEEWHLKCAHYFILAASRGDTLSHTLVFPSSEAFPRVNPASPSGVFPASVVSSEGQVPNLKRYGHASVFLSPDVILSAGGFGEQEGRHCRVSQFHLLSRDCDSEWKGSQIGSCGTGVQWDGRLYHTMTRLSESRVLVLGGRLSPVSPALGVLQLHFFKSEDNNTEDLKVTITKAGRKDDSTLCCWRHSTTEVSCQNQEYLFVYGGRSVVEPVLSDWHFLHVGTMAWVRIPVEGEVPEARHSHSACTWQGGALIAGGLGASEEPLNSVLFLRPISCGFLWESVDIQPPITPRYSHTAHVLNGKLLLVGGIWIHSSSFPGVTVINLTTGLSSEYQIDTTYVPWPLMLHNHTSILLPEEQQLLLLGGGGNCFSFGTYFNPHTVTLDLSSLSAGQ
UniProt Q9UIC8: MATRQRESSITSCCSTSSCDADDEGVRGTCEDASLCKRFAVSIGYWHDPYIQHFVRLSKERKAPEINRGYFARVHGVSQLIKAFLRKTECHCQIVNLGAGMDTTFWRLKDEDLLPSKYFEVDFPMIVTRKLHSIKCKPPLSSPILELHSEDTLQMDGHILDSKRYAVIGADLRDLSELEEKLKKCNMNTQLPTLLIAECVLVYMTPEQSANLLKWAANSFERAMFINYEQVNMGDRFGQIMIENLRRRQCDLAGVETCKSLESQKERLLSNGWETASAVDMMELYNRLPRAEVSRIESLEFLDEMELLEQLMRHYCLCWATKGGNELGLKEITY
UniProt Q9UFC0: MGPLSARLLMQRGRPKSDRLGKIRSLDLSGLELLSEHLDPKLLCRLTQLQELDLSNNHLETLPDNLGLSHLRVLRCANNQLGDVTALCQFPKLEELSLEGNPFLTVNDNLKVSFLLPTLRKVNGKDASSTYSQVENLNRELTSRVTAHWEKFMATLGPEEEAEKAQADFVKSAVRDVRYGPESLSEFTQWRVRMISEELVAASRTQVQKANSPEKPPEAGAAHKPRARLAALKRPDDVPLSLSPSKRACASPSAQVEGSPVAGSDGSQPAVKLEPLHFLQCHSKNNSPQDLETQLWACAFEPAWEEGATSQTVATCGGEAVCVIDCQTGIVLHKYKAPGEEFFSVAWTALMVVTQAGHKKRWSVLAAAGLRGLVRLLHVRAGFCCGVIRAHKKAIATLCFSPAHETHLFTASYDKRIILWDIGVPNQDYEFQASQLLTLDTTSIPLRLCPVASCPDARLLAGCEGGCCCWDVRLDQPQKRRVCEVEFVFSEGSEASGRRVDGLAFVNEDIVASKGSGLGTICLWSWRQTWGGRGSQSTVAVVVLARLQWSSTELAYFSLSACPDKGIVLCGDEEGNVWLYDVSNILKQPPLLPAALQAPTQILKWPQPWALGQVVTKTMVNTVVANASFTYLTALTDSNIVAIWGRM
UniProt Q9NUP9: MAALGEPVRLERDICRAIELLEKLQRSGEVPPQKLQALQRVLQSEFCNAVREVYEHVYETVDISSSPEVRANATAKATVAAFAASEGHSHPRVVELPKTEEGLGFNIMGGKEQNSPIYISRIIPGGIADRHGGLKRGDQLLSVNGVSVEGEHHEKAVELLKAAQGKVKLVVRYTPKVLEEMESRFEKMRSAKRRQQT
UniProt Q7L1W4: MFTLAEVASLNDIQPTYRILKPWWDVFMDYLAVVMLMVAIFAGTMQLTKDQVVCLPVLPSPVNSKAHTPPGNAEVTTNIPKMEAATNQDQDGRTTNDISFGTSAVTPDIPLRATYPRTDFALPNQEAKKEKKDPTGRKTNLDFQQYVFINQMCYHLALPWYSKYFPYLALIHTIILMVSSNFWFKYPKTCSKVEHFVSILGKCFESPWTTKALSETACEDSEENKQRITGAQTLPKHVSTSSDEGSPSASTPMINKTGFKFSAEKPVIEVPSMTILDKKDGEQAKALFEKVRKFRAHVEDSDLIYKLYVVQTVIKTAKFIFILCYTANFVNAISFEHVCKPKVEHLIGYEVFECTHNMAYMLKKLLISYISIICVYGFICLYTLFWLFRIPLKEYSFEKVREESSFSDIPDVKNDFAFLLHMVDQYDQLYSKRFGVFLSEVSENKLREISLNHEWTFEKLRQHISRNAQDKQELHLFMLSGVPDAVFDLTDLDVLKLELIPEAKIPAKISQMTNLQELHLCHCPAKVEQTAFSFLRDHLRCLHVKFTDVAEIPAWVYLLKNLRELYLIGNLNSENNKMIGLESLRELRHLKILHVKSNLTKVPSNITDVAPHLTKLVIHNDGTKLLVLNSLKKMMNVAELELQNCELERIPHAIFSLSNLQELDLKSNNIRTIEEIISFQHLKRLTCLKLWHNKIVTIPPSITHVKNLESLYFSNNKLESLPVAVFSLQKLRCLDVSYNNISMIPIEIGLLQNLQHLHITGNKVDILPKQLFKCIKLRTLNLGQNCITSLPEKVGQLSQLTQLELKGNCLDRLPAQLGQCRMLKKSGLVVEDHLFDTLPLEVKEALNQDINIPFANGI
UniProt Q9UHB6: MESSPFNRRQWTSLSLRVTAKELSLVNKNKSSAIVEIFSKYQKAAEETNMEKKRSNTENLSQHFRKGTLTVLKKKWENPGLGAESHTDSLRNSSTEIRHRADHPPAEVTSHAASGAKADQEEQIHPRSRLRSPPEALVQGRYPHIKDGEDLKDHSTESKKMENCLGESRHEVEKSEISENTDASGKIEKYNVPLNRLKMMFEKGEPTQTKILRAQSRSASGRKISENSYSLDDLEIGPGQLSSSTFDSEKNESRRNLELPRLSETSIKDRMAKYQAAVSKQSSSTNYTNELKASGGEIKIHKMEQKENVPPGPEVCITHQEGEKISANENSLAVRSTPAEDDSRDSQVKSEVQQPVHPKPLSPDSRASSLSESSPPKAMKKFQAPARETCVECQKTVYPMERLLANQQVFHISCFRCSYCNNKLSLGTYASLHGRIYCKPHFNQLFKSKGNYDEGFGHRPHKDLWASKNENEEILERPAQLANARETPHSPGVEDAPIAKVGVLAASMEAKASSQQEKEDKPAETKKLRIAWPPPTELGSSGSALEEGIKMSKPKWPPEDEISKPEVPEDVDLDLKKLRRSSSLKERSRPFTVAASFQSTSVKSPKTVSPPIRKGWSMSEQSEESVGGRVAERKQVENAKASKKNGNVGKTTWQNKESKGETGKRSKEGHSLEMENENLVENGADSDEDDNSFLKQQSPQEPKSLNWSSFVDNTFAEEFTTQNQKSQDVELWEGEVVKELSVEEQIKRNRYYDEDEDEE
UniProt P20700: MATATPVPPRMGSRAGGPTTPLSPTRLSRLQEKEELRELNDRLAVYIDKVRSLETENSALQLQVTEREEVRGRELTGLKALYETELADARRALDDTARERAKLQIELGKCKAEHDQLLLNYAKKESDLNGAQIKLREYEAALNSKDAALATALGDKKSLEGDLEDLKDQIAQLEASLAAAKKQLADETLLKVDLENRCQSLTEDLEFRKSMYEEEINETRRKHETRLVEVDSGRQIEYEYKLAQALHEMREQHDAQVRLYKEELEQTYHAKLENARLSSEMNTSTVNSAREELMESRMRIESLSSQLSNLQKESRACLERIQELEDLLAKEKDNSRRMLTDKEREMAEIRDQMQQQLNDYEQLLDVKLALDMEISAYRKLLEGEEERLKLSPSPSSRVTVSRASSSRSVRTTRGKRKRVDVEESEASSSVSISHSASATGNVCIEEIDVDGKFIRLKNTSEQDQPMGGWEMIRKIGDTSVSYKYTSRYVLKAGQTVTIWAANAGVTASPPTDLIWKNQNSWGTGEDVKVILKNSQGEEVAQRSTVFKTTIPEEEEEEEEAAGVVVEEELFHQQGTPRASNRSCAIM
UniProt Q9Y333: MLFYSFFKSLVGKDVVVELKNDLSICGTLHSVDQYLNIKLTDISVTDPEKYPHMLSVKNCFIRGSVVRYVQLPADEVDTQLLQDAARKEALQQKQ
UniProt Q5TKA1: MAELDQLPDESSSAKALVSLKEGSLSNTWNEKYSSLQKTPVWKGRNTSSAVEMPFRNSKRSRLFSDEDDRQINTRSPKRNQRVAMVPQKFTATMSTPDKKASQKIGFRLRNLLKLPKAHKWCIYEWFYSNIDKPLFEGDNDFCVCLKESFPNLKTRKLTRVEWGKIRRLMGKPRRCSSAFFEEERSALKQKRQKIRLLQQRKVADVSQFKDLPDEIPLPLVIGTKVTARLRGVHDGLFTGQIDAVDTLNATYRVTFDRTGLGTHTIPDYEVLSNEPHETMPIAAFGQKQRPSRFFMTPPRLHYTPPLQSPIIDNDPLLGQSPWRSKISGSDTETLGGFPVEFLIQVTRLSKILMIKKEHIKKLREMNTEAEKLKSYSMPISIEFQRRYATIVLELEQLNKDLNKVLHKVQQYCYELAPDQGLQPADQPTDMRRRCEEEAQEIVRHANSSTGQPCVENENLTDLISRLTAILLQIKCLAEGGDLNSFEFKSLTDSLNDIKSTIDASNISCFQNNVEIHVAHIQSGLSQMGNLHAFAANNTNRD
UniProt Q9C0E8: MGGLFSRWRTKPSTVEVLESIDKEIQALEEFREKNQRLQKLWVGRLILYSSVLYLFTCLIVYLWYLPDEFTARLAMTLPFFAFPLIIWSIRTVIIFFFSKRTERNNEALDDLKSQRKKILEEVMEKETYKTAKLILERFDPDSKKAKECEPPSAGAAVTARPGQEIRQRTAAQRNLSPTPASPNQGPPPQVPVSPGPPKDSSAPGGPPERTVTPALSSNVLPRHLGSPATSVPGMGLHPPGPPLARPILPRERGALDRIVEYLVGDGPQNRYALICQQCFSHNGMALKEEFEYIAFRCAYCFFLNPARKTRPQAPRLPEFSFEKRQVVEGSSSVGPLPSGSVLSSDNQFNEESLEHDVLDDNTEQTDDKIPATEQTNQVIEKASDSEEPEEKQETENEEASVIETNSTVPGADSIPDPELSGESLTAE

What follows are targets tested with O=C1NC(=O)C(c2cnc3ccccn23)=C1c1cn2c3c(cc(F)cc13)CN(C(=O)N1CCCCC1)CC2 (assay: log2 fold change, soluble protein after heating vs DMSO (PISA); higher = thermal stabilisation; K562 lysate, 10 uM; active = over 0.2 and 3.5 SD of the protein, either way, in both replicates (recomputed)).
How it was run: (§1)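 Log-two fold change in thermal stability relative to solvent controls is reported from duplicates. For each sample, crude K562 extract from dounce-homogenised pellets in PBS pH 7.4 with 1 mM MgCl2, at 1 mg/mL protein, was treated with 10 μM compound for 30 min. Aliquots heated for 3 min across 48°C-58°C were pooled, brought to 0.5% NP-40 at 4°C and cleared at 21,000xg for 90 min. The supernatant was quantified by TMTpro 16plex LC-MS/MS with channel sums equalised.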

log2 fold change, inactive:
LRPPRC (UniProt P42704) 0.023
LETMD1 isoform 7 (UniProt Q6P1Q0) -0.021
LARS2 (UniProt Q15031) -0.083
LMNB2 (UniProt Q03252) -0.038
LCLAT1 (UniProt Q6UWP7) 0.137
LEO1 (UniProt Q8WVC0) -0.018
LCMT2 (UniProt O60294) 0.04
LRRC8B (UniProt Q6P9F7) 0.027
LCMT1 (UniProt Q9UIC8) 0.009
LRBA, A0A494BZW2 -0.268
LMO2 isoform 3 (UniProt P25791) -0.071
LRRC8C (UniProt Q8TDW0) -0.013
LDAH isoform 2 (UniProt Q9H6V9) 0.033
LMAN2L isoform 2 (UniProt Q9H0V9) 0.044
LRCH4 (UniProt O75427) -0.006
LCP2 (UniProt Q13094) -0.012
LAS1L (UniProt Q9Y4W2) -0.018
LRWD1 (UniProt Q9UFC0) -0.011
LSM14B isoform 2 (UniProt Q9BX40) -0.047
LGALS8 isoform 2 (UniProt O00214) 0.004
LIMD1 (UniProt Q9UGP4) -0.003
LDHA isoform 3 (UniProt P00338) 0.004
LIN7C (UniProt Q9NUP9) -0.053
LRRC8D (UniProt Q7L1W4) -0.03
LIMA1 isoform 4 (UniProt Q9UHB6) 0.025
LRRC57 (UniProt Q8N9N7) -0.022
LMAN1 (UniProt P49257) -0.014
LMNB1 (UniProt P20700) 0.01
LSM2 (UniProt Q9Y333) -0.016
LINS1 (UniProt Q8NG48) -0.007
LIG1 (UniProt P18858) -0.019
LMBRD1 (UniProt Q9NUN5) -0.031
LRRCC1 (UniProt Q9C099) -0.135
LRCH3 (UniProt Q96II8) -0.03
LIG4 (UniProt P49917) -0.039
LRRC59 (UniProt Q96AG4) -0.008
LSR (UniProt Q86X29) -0.035
LIN9 isoform 2 (UniProt Q5TKA1) -0.009
LNPK (UniProt Q9C0E8) -0.008

Each target was assayed with c1cn2cc(-c3ccc4cn[nH]c4c3)nc(Nc3ccc(N4CCOCC4)cc3)c2n1 [entospletinib] in the same assay as above.
How it was run: as §1

log2 fold change, inactive:
LRPPRC (UniProt P42704) 0.035
LETMD1 isoform 7 (UniProt Q6P1Q0) 0.065
LARS2 (UniProt Q15031) 0.036
LMNB2 (UniProt Q03252) 0.015
LCLAT1 (UniProt Q6UWP7) -0.024
LEO1 (UniProt Q8WVC0) 0.004
LCMT2 (UniProt O60294) 0.032
LRRC8B (UniProt Q6P9F7) -0.058
LCMT1 (UniProt Q9UIC8) -0.017
LRBA, A0A494BZW2 0.099
LMO2 isoform 3 (UniProt P25791) 0.032
LRRC8C (UniProt Q8TDW0) 0.075
LDAH isoform 2 (UniProt Q9H6V9) -0.029
LMAN2L isoform 2 (UniProt Q9H0V9) 0.038
LRCH4 (UniProt O75427) 0.032
LCP2 (UniProt Q13094) -0.035
LAS1L (UniProt Q9Y4W2) -0.075
LRWD1 (UniProt Q9UFC0) 0.006
LSM14B isoform 2 (UniProt Q9BX40) -0.015
LGALS8 isoform 2 (UniProt O00214) -0.013
LIMD1 (UniProt Q9UGP4) -0.004
LDHA isoform 3 (UniProt P00338) 0.045
LIN7C (UniProt Q9NUP9) -0.025
LRRC8D (UniProt Q7L1W4) -0.014
LIMA1 isoform 4 (UniProt Q9UHB6) 0.033
LRRC57 (UniProt Q8N9N7) -0.007
LMAN1 (UniProt P49257) -0.023
LMNB1 (UniProt P20700) -0.024
LSM2 (UniProt Q9Y333) 0.012
LINS1 (UniProt Q8NG48) -0.032
LIG1 (UniProt P18858) 0
LMBRD1 (UniProt Q9NUN5) -0.071
LRRCC1 (UniProt Q9C099) -0.039
LRCH3 (UniProt Q96II8) -0.009
LIG4 (UniProt P49917) 0.062
LRRC59 (UniProt Q96AG4) 0.005
LSR (UniProt Q86X29) 0.041
LIN9 isoform 2 (UniProt Q5TKA1) 0.016
LNPK (UniProt Q9C0E8) -0.016
